# Some of the results follow. These are further read-outs of the screen, such as a control signal, another cell line or another target. No call is given for them. Most of these compounds were active or inconclusive in the main read-out, so they are no random draw. The note in brackets gives the kind of curve behind each potency; many fits are weak.
# Assay: Cell signaling CRE-BLA (Fsk stim)
# Conditions: CHO CRE-bla reporter (cAMP response element driving beta-lactamase), forskolin EC10, beta-lactamase ratio; measured here: 460 nm blue channel
# Outline: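 CRE-bla CHO cells stimulated with EC10 NKH 477 (water-soluble forskolin) and compound titrations, 3 h at 37C; beta-lactamase read with CCF4 after 2 h at room temperature. Activity from 460/530 nm emission ratio, AC50 values for positive or negative modulation.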
row,Structure (SMILES),AC50
1,CCOC(=O)c1c(C)[nH]c(C(=O)NCc2ccccc2OC)c1C,"10 µM [rising, partial curve]"
2,CC(=O)N1CCN(c2ccc(Nc3nc(C)nc4c3oc3ccccc34)cc2)CC1,"0.398 µM [rising, full curve]"
3,C=CCn1c(-c2ccccc2)nc2nc3ccccc3nc21,"2.51 µM [rising, full curve]"
4,COc1ccc(OC)c(CNC(=O)COc2cc(=O)n(C)c3ccccc23)c1,"10 µM [rising, partial curve]"
5,CCN1CCN(CC(O)COc2ccc(C)c(C)c2)CC1 (centres undefined),"0.126 µM [falling, full curve, poor fit]"
6,O=C1C(=C2CCCCC2)SC(=S)N1Cc1ccco1,"0.00316 µM [falling, full curve, poor fit]"
7,Cc1ccccc1-c1nnc(SCC(=O)Nc2ccc(Cl)cc2)n1N,"1.26 µM [falling, full curve]"
8,Cc1ccc(-c2csc3ncnc(Sc4nnc(CN5CCCCCC5=O)o4)c23)cc1,"0.398 µM [falling, full curve]"
9,COc1cccc(Cn2c(=O)c(-c3cc(F)cc(F)c3)nc3cnc(OC)nc32)c1,"2 µM [rising, full curve, poor fit]"
10,O=c1c(-c2ccc(F)cc2)nc2cnc(Nc3ccccc3)nc2n1Cc1cccs1,"1.26 µM [rising, full curve]"
11,CN1CCN(C2=C(Cl)C(=O)N(c3ccc(Cl)cc3)C2=O)CC1,"25.1 µM [falling, single point]"
12,Cc1cccc(CNc2ncnc3ccc(-c4c(C)noc4C)cc23)c1,"10 µM [rising, partial curve]"
13,CSc1nc(C)cc(-n2ccc(=O)[nH]c2=O)n1,"3.16 µM [rising, single point]"
14,COc1ccc2nc(NC(=O)CN(c3ccc(C)cc3)S(=O)(=O)c3c(C)nn(C)c3C)sc2c1,"1.58 µM [rising, full curve]"
15,O=C(CN1CCNCC1)Nc1ccccc1Cl,"0.631 µM [falling, full curve, poor fit]"
16,CCNC(=O)NC(=O)C(C)Oc1ccc(C(=O)OC)cc1 (centres undefined),"5.01 µM [rising, single point]"
17,O=c1cc(CO)oc(CN2CCN(c3ccccc3)CC2)c1O,"0.794 µM [falling, full curve]"
18,COc1cccc(C(=O)Nc2c(C(N)=O)oc3ccccc23)c1,"3.16 µM [rising, full curve]"
19,O=C(Nc1nc2ccccc2[nH]1)C1CC(=O)N(c2ccc3c(c2)OCCO3)C1 (centres undefined),"7.94 µM [falling, partial curve]"
20,c1cncc(-c2ccc3ncnc(NCCN4CCOCC4)c3c2)c1,"12.6 µM [rising, single point]"
21,COc1cccc(NC(=O)CCSc2nnc3scc(-c4ccccc4)n23)c1,"1.26 µM [rising, partial curve]"
22,Cc1cc(N(C)C)c(C#N)c(NCc2ccccc2)n1,"15.8 µM [rising, single point]"

# 14 entries from above, with bars between the fields:
row | Structure (SMILES) | AC50
3 | C=CCn1c(-c2ccccc2)nc2nc3ccccc3nc21 | 2.51 µM [rising, full curve]
4 | COc1ccc(OC)c(CNC(=O)COc2cc(=O)n(C)c3ccccc23)c1 | 10 µM [rising, partial curve]
5 | CCN1CCN(CC(O)COc2ccc(C)c(C)c2)CC1 (centres undefined) | 0.126 µM [falling, full curve, poor fit]
6 | O=C1C(=C2CCCCC2)SC(=S)N1Cc1ccco1 | 0.00316 µM [falling, full curve, poor fit]
7 | Cc1ccccc1-c1nnc(SCC(=O)Nc2ccc(Cl)cc2)n1N | 1.26 µM [falling, full curve]
8 | Cc1ccc(-c2csc3ncnc(Sc4nnc(CN5CCCCCC5=O)o4)c23)cc1 | 0.398 µM [falling, full curve]
9 | COc1cccc(Cn2c(=O)c(-c3cc(F)cc(F)c3)nc3cnc(OC)nc32)c1 | 2 µM [rising, full curve, poor fit]
10 | O=c1c(-c2ccc(F)cc2)nc2cnc(Nc3ccccc3)nc2n1Cc1cccs1 | 1.26 µM [rising, full curve]
11 | CN1CCN(C2=C(Cl)C(=O)N(c3ccc(Cl)cc3)C2=O)CC1 | 25.1 µM [falling, single point]
12 | Cc1cccc(CNc2ncnc3ccc(-c4c(C)noc4C)cc23)c1 | 10 µM [rising, partial curve]
13 | CSc1nc(C)cc(-n2ccc(=O)[nH]c2=O)n1 | 3.16 µM [rising, single point]
14 | COc1ccc2nc(NC(=O)CN(c3ccc(C)cc3)S(=O)(=O)c3c(C)nn(C)c3C)sc2c1 | 1.58 µM [rising, full curve]
15 | O=C(CN1CCNCC1)Nc1ccccc1Cl | 0.631 µM [falling, full curve, poor fit]
16 | CCNC(=O)NC(=O)C(C)Oc1ccc(C(=O)OC)cc1 (centres undefined) | 5.01 µM [rising, single point]

# Carrying on.

row,Structure (SMILES),AC50
1,O=[N+]([O-])c1cc(Cl)c(Cl)c(Cl)c1Cl,"31.6 µM [falling, single point]"
2,O=C(O)c1ccccc1Nc1cccc(OCc2ccc3ccccc3n2)c1,"2.51 µM [rising, partial curve]"
3,Cn1c(C(=O)NC2CC2)cc2c(=O)n(C)c3ccccc3c21,"3.16 µM [rising, full curve]"
4,O=C(Oc1ccc(-c2nnco2)cc1)N(c1ccccc1)c1ccccc1,"25.1 µM [rising, single point]"
5,CCOC(=O)C1=C(C)NC(=O)NC1/C=C/c1ccccc1 (centres undefined),"25.1 µM [rising, single point]"
6,CCOC(=O)N1CCC(Nc2nc3ccccc3n3cnnc23)CC1,"10 µM [rising, partial curve]"
7,Cc1ccc(NCc2nnc(SCC(=O)NCc3ccco3)n2CC2CCCO2)cc1Cl (centres undefined),"2.51 µM [rising, single point]"
8,Cc1ccc(-c2c3c(=O)n(C)c(=O)n(C)c3cn2-n2cnnc2)cc1,"0.0794 µM [falling, full curve]"
9,CCC(C)[C@H](NC(=O)NCc1ccco1)C(=O)O (some centres undefined),"3.16 µM [rising, single point]"
10,COc1ccc(Cn2c(CCC(=O)O)nc3cccnc32)cc1,"0.316 µM [falling, full curve, poor fit]"
11,CCCCNC(=O)c1cc(-c2ccc(F)cc2)on1,"0.501 µM [falling, partial curve]"
12,CN1CCN(S(=O)C23CC4CC(CC(C4)C2)C3)CC1 (centres undefined),"15.8 µM [rising, partial curve]"
13,COC(=O)c1cn(-c2ccccc2)nc1-c1cccnc1,"12.6 µM [rising, partial curve]"
14,CCC(=O)N1c2ccc(S(=O)(=O)CCC(=O)NCCC3=CCCCC3)cc2CC1C (centres undefined),"0.158 µM [falling, partial curve, poor fit]"
15,COc1ccc(N2CCN(C(=O)C3CCC(Cn4c(=S)[nH]c5ccccc5c4=O)CC3)CC2)cc1 (centres undefined),"25.1 µM [falling, single point]"
16,CC(C)(C)OC(=O)c1c(N)n(CCCN2CCCC2=O)c2nc3ccccc3nc12,"12.6 µM [rising, partial curve]"
17,CN(C)Cc1nc2ccccc2c(=O)n1Cc1nc(-c2cc3ccccc3o2)cs1,"0.316 µM [falling, partial curve, poor fit]"
18,CCCCn1c2nc3ccccc3nc2c2c(=N)oc(C)nc21,"10 µM [rising, partial curve]"
19,COc1ncc2nc(-c3ccccc3)c(=O)n(-c3ccccc3)c2n1,"12.6 µM [rising, single point]"
20,CCCn1nc(-c2ccccc2)c2nc3ccccc3nc21,"3.98 µM [rising, full curve]"
21,CCn1c(SCc2ccc(C(=O)OC)o2)nc2sc3c(c2c1=O)CCCC3,"10 µM [rising, partial curve]"
22,Cc1ccc(NC(=O)CC2Nc3ccccc3NC2=O)cc1Cl (centres undefined),"10 µM [rising, partial curve]"

# Source: PubChem BioAssay AID662 (National Center for Advancing Translational Sciences (NCATS), 2007)
